PubChem BioAssay AID504764, Drosophila RNAi Screening Center, 2011

- Assay: 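Knock-downs that raise or lower a Notch target reporter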 (primary screen)
- Cells: Drosophila Kc167 cells
- Knock-down reagent: long dsRNA against Drosophila genes
- Timing: about 5 days (4 days dsRNA, then 24 h after transfection)
- Treatment: transfection of constitutively active membrane-tethered Notch lacking the extracellular domain, read 24 h later
- Detection: 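Firefly luciferase from an E(spl)m3 reporter with active Notch, plus control-promoter and uninduced reporter wells for normalisation; unnormalised counts, duplicate wells a and b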
- Direction: induced reporter light, run 1, well a and induced reporter light, run 1, well b: higher = more light from the Notch target reporter with active Notch; control promoter light, run 1, well a and control promoter light, run 1, well b: higher = more light from the viral control promoter (cell number, transfection, viability); uninduced reporter light, run 1, well a: higher = more light from the Notch target reporter without active Notch
- Active means: 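Hit if the duplicate-averaged log2 ratio of induced to control-promoter light gives a plate-wise z beyond ±2, or induced to uninduced beyond ±1.8; weak-control or discordant-duplicate wells dropped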
- Calls: active = modifier hit (raised or lowered Notch signal); inactive = not a hit
In all, the deposit lists about 22,000 reagents; this is a random part of those that have a named target and a result. In the full data, 403 (1.9%) were called active. 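Unnormalised raw counts per well; ratio z-scores behind the hit calls and whether each hit raises or lowers signal are not deposited.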 A number with no mark means an inactive call. A plus sign joins genes that one reagent is predicted to hit. No sequences are given here. The record does not give: the amount of reagent.

CG12321 (GeneID 42174) [DRSC14499]: induced reporter light, run 1, well a = 2.13e5; induced reporter light, run 1, well b = 2.00e5; control promoter light, run 1, well a = 2.56e5; control promoter light, run 1, well b = 2.70e5; uninduced reporter light, run 1, well a = 16680
Mo25 (GeneID 39858) [DRSC11224]: induced reporter light, run 1, well a = 1.37e5; induced reporter light, run 1, well b = 1.51e5; control promoter light, run 1, well a = 92680; control promoter light, run 1, well b = 1.03e5; uninduced reporter light, run 1, well a = 10120
RpL23 (GeneID 37628) [DRSC04648]: induced reporter light, run 1, well a = 28050; induced reporter light, run 1, well b = 22575; control promoter light, run 1, well a = 30085; control promoter light, run 1, well b = 29055; uninduced reporter light, run 1, well a = 1782
CG17050 (retired record) (GeneID 36482) [DRSC06651]: induced reporter light, run 1, well a = 94965; induced reporter light, run 1, well b = 94450; control promoter light, run 1, well a = 1.30e5; control promoter light, run 1, well b = 1.12e5; uninduced reporter light, run 1, well a = 8930
Or85e (retired record) (GeneID 3772269) [DRSC16768]: induced reporter light, run 1, well a = 81840; induced reporter light, run 1, well b = 1.16e5; control promoter light, run 1, well a = 99710; control promoter light, run 1, well b = 1.02e5; uninduced reporter light, run 1, well a = 5360
CG9812 (GeneID 37709) [DRSC04566]: induced reporter light, run 1, well a = 1.53e5; induced reporter light, run 1, well b = 1.47e5; control promoter light, run 1, well a = 1.59e5; control promoter light, run 1, well b = 1.16e5; uninduced reporter light, run 1, well a = 11050
CG2006 + Spase12 [DRSC14316]: induced reporter light, run 1, well a = 1.05e5; induced reporter light, run 1, well b = 1.13e5; control promoter light, run 1, well a = 1.54e5; control promoter light, run 1, well b = 1.33e5; uninduced reporter light, run 1, well a = 8840
Hacl (GeneID 37285) [DRSC06061]: induced reporter light, run 1, well a = 91990; induced reporter light, run 1, well b = 94315; control promoter light, run 1, well a = 1.84e5; control promoter light, run 1, well b = 1.88e5; uninduced reporter light, run 1, well a = 8510

2 of these entries, set out differently:
gene	amplicon	induced reporter light, run 1, well a	induced reporter light, run 1, well b	control promoter light, run 1, well a	control promoter light, run 1, well b	uninduced reporter light, run 1, well a
CG12321 (GeneID 42174)	DRSC14499	2.13e5	2.00e5	2.56e5	2.70e5	16680
Mo25 (GeneID 39858)	DRSC11224	1.37e5	1.51e5	92680	1.03e5	10120

More reagents follow:
promL (GeneID 38372) [DRSC08733]: induced reporter light, run 1, well a = 1.24e5; induced reporter light, run 1, well b = 1.14e5; control promoter light, run 1, well a = 1.02e5; control promoter light, run 1, well b = 50540; uninduced reporter light, run 1, well a = 13570
Prim2 (GeneID 44915) [DRSC11610]: induced reporter light, run 1, well a = 89390; induced reporter light, run 1, well b = 70225; control promoter light, run 1, well a = 42890; control promoter light, run 1, well b = 51800; uninduced reporter light, run 1, well a = 7690
CG11436 (GeneID 31386) [DRSC17783]: induced reporter light, run 1, well a = 1.74e5; induced reporter light, run 1, well b = 1.71e5; control promoter light, run 1, well a = 2.36e5; control promoter light, run 1, well b = 2.30e5; uninduced reporter light, run 1, well a = 11825
CG31633 (GeneID 33931) [DRSC02275]: induced reporter light, run 1, well a = 1.29e5; induced reporter light, run 1, well b = 1.10e5; control promoter light, run 1, well a = 1.37e5; control promoter light, run 1, well b = 1.20e5; uninduced reporter light, run 1, well a = 10800
